From PubChem BioAssay AID1671190 (National Center for Advancing Translational Sciences (NCATS), 2021)
Several values for one entry are separate records, joined by “and”; a condition that tells them apart may be missing. Identical values can stand only once. About 6,100 (1.1%) of roughly 580,000 compounds were called active. Inconclusive results, whose numbers are uncertain, are shown with a selection of clear calls. Calls follow the shape of the dose curve; as a rule, active = well fitted inhibition curve with a large enough effect; inconclusive = small, poorly fitted or top-dose-only effect, or another doubt; inactive = no such curve, though single readings can be large or run the other way. Potencies of inconclusive entries are doubtful fits and often do not repeat.

Amino acid sequences for entries named in this document (tags omitted). A change or cut given only in a name is not applied to a line headed by its entry.
UniProt P18054: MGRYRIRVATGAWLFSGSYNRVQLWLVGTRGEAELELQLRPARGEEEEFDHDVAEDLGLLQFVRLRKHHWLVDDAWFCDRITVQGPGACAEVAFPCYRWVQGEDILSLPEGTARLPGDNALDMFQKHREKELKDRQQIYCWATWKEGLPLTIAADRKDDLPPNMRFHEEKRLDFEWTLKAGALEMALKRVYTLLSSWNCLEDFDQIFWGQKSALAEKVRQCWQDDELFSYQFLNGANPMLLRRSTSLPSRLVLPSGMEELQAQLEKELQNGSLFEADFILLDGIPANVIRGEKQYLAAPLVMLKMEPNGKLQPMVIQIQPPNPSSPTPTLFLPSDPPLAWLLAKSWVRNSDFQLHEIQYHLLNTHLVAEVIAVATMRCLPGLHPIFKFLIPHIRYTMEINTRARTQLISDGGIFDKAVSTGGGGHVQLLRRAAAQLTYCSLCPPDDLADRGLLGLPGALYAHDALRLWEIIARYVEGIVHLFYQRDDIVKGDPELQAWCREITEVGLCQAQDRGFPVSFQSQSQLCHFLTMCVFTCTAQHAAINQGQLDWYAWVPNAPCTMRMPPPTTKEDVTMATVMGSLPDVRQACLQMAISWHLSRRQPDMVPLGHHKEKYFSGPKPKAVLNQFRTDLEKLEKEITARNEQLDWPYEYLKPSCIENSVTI

Biological target: Polyunsaturated fatty acid lipoxygenase ALOX12 (Homo sapiens) (UniProt P18054)
Assay: Primary qHTS assay for inhibitors of human arachidonate 12S-lipoxygenase (ALOX12): Round 2
Details: purified 12hLO, xylenol orange hydroperoxide absorbance; activity change, negative = inhibition: at 108 µM (top of the series) unless noted
Method in brief: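 Hydroperoxide product was detected by ferrous iron/xylenol orange as the 573 to 405 nm absorbance ratio. Arachidonic acid at 40 uM (final) was turned over for 30 min at room temperature by 150 nM human 12hLO, pH 7.0 Hepes buffer, after 15 min compound preincubation.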
% is scaled to controls: 0 for no effect and ±100 for the full control effect; potency is read from the fitted curve at half-maximal effect.

Row | SMILES | activity change, negative = inhibition | Potency
1 | O=[N+]([O-])c1cccc(CN2CCN(c3cccc4[nH]ccc34)CC2)c1 | inactive: -4.66% | –
2 | O=C(Nc1ccc2oc(-c3ccncc3)nc2c1)c1ccc2c(c1)OCO2 | – | inconclusive: 22.4 µM [inhibitor, partial curve, poor fit] and inconclusive: 31.6 µM [inhibitor, single point]
3 | Cc1ccc(SCC(=O)NCC2COc3ccccc3O2)cc1 (stereo not drawn) | – | inconclusive: 112 µM [inhibitor, single point]
4 | Cc1[nH]c2ccccc2c1/C=N/NC(=O)CNC(=O)c1cccs1 | – | inconclusive: 56.2 µM [inhibitor, partial curve, poor fit]
5 | COc1cc(F)ccc1NS(=O)(=O)c1cc(C(=O)O)ccc1OC | – | inconclusive: 35.5 µM [inhibitor, single point]
6 | Nc1ncnc2c1ccn2[C@H]1CN(Cc2ccc(Cl)cc2)C[C@@H](CO)O1 | – | inconclusive: 14.1 µM [inhibitor, partial curve, poor fit]
7 | Cc1ccc(N=C2NN=C(c3c[nH]c(C(=O)N4CCCC4)c3)CS2)cc1C | – | inconclusive: 50.1 µM [inhibitor, partial curve, poor fit]
8 | O=C(O)CN1C(=O)/C(=C\c2cc(Br)ccc2OCc2ccccc2F)SC1=S | – | inconclusive: 3.16 µM [inhibitor, full curve, poor fit]
9 | O=C(c1ccoc1)N1CCN(c2cc(-c3ccncc3)nc3cc(-c4cccc(Cl)c4)nn23)CC1 | – | inconclusive: 112 µM [inhibitor, single point]
10 | COc1cc(C(=O)Nc2ccc(-c3cc(C(F)(F)F)nn3-c3ccccc3)cc2)cc(OC)c1OC | – | inconclusive: 56.2 µM [inhibitor, partial curve, poor fit]
11 | COc1ccc(-c2ccc(CCC(=O)O)n2Cc2ccco2)cc1 | – | inconclusive: 44.7 µM [inhibitor, partial curve, poor fit]
12 | Cn1c(=O)c(=O)n(C)c2cc(N3CCCC3)c(NS(=O)(=O)c3ccc(Cl)cc3)cc21 | – | active: 39.8 µM
13 | CC(=O)c1ccc(N2CCN(CC(O)COC(c3ccccc3)c3ccccc3)CC2)cc1 (stereo not drawn) | – | inconclusive: 3.98 µM [inhibitor, full curve, poor fit]
14 | COc1ccc(C(=O)N2CCN(c3cc(-c4ccccc4)[nH]n3)CC2)c(OC)c1 | inactive: 12.7% | –
15 | CCn1cnc2c1c(=O)n(Cc1csc(-c3ccccc3)n1)c(=O)n2Cc1ccccc1 | – | inconclusive: 79.4 µM [inhibitor, partial curve, poor fit]
16 | O=C(Nc1ccc(Oc2cccc(C(F)(F)F)c2)nc1)c1cccs1 | inactive: 95.4% | –
17 | C/C(CC(C)(C)C1CCCCC1)=N\N=C(N)N | – | inconclusive: 39.8 µM [inhibitor, partial curve]
18 | CCc1ccccc1NC(=O)c1cnn2c(C(F)(F)F)cc(-c3ccc(OC)c(OC)c3)nc12 | inactive: -3.61% | –
19 | Cc1cccc(-c2nc(Nc3cccc(O)c3)c3ccccc3n2)c1 | – | inconclusive: 112 µM [inhibitor, single point]

Row | SMILES | activity change, negative = inhibition | Potency
20 | COc1ccc(-c2cc(C(=O)OCC(=O)Nc3cc(C)on3)c3ccccc3n2)cc1OC | – | inconclusive: 112 µM [inhibitor, single point]
21 | CCO[C@H]1OC(C(=O)NCc2ccccc2)=C[C@@H](C2CC2)[C@@H]1CCCO | – | inconclusive: 50.1 µM [inhibitor, partial curve, poor fit]
22 | CCOC(=O)CNC(=O)c1cc2cccc(OCC)c2oc1=O | – | inconclusive: 20 µM [inhibitor, partial curve, poor fit]
23 | N#Cc1ccc2[nH]cc(C3c4cc(F)ccc4C=C(c4ccsc4)N3c3ccc(C#CCCO)cc3)c2c1 (stereo not drawn) | – | inconclusive: 112 µM [inhibitor, single point]
24 | CCOC(=O)c1c(-c2cccs2)csc1NC(=O)c1ccco1 | inactive: -11.8% | –
25 | O=C1[C@@H]2C[C@@H](O)CN2C2(CN(Cc3c[nH]c4ccccc34)C2)C(=O)N1Cc1cccc(Cl)c1 | – | inconclusive: 25.1 µM [inhibitor, full curve]
26 | CCn1cc(/C=C(\NC(=O)c2ccc(OC)cc2)C(=O)N2CCOCC2)c2ccccc21 | – | inconclusive: 31.6 µM [inhibitor, partial curve]
27 | CCCNC(=O)N[C@@H]1C=C(C(=O)N[C@@H](Cc2ccc(OC)cc2)C(N)=O)C[C@@H](O)[C@@H]1O | inactive: -5.99% [at 176 µM] | –
28 | CC1(C)Cc2nc3sc4c(=O)[nH]cnc4c3cc2CS1 | inactive: 0% | –
29 | COc1ccc(Cl)cc1NC(=S)NCCSc1ccc(C)cc1 | – | active: 44.7 µM
30 | CC(=O)NC(Cc1ccc(F)c(F)c1)C(=O)NC1CCN(S(=O)(=O)c2ccc(C)cc2)CC1 (stereo not drawn) | – | inconclusive: 5.62 µM [inhibitor, full curve, poor fit]
31 | COc1ccccc1OCc1ccc(C(=O)Nc2ccc(C)c(C)c2)o1 | inactive: -18.9% | –
32 | CC(C)OP(=O)(OC(C)C)/C(C=O)=N\Nc1ccc([N+](=O)[O-])cc1 | – | inconclusive: 44.7 µM [inhibitor, partial curve, poor fit]
33 | CCOC(=O)c1c(C)sc(-c2c(-c3cc(C)ccc3C)[nH]c3c2c(=O)[nH]c(=O)n3C)c1O | – | inconclusive: 56.2 µM [inhibitor, partial curve, poor fit]
34 | COC(=O)C1=C(CCc2ccccc2)NC(=O)NC1c1ccc([N+](=O)[O-])cc1 (stereo not drawn) | – | inconclusive: 50.1 µM [inhibitor, partial curve, poor fit]
35 | C[C@@H]1CN([C@H](C)CO)C(=O)CCCn2nncc2CO[C@H]1CN(C)C(=O)Nc1cccc2ccccc12 | – | inconclusive: 89.1 µM [inhibitor, partial curve, poor fit]
36 | Cc1cccc(-n2c(O)c(C=Nc3cccc(O)c3)c3ccccc3c2=O)n1 | – | inconclusive: 44.7 µM [inhibitor, partial curve, poor fit]
37 | CC(=O)N1Cc2ccccc2CC2(CCCN(Cc3ccccc3)C2)C1 (stereo not drawn) | – | inconclusive: 89.1 µM [inhibitor, single point]
38 | CN1CCN(c2ccc(S(=O)(=O)N3CCCCC3)cc2NC(=O)CCc2ccccc2)CC1 | – | inconclusive: 100 µM [inhibitor, single point]
